Article PMC11251039, “Harnessing cholesterol uptake of malaria parasites for therapeutic applications” (EMBO Molecular Medicine, 2024)
Values joined by “and” are separate entries in the source; they are usually repeats but may differ in a detail not shown here. Equal entries are not always repeated.

Experiments:
[1] = tested on: infected red blood cells (iRBCs); test: Uptake of fluorescent cholesterol analogues (deconvolution fluorescence microscopy, flow cytometry); assay type: cell-based, P. falciparum; settings: for Uptake in iRBCs compared to uRBCs (NBD fluorescence, flow cytometry) / NBD mean fluorescence intensity (foldchange, normalised), Infected: 2 µM, 24 h; for NBD mean fluorescence intensity (foldchange, normalised), Infected: flow cytometry, replicate values, source data Fig. 1H; for Subcellular fluorescence localisation: 24 h incubation from ring stage, deconvolution fluorescence microscopy
[2] = tested on: uninfected red blood cells (uRBCs); test: Uptake of fluorescent cholesterol analogues (flow cytometry), uninfected cells; assay type: cell-based, human; settings: 2 µM, 24 h, replicate values, source data Fig. 1H

Row | SMILES | Uptake in iRBCs compared to uRBCs (NBD fluorescence, flow cytometry) [1] | NBD mean fluorescence intensity (foldchange, normalised), Infected [1] | Subcellular fluorescence localisation [1] | NBD mean fluorescence intensity (foldchange, normalised), Uninfected [2]
1 | CC(C)CCC[C@@H](C)[C@H]1CC[C@H]2[C@@H]3CC=C4C[C@@H](OC(=O)CCCCCN(C)c5ccc([N+](=O)[O-])c6nonc56)CC[C@]4(C)[C@H]3CC[C@]12C [3-Hexanoyl-NBD-cholesterol] | not significantly different | 0.0904 and 0.434 and 0.1229 and 0.3079 and 0.297 and 0.3178 and 0.1407 and 0.156 and 0.1654 and 0.213 and 0.2006 and 0.2018 | faintly visible in the RBC membrane and in the parasite | 0.06749 and 0.1421 and 0.1333 and 0.1319 and 0.3093 and 0.06015 and 0.2316 and 0.2295 and 0.2415 and 0.0755 and 0.09012 and 0.093
2 | CC1=CC(C)=[N+]2C1=C(CCCCCCCCCCC(=O)O[C@H]1CC[C@@]3(C)C(=CC[C@H]4[C@@H]5CC[C@H]([C@H](C)CCCC(C)C)[C@@]5(C)CC[C@@H]43)C1)c1c(C)cc(C)n1[B-]2(F)F [3-undecanoate-BODIPY-cholesterol] | – | – | faint and only visible in the parasite | –
3 | C[C@H](CN(C)c1ccc([N+](=O)[O-])c2nonc12)[C@H]1CC[C@H]2[C@@H]3CC=C4C[C@@H](O)CC[C@]4(C)[C@H]3CC[C@]12C [22-NBD-cholesterol] | approximately 8 fold | 6.176 and 5.65 and 4.181 and 8.962 and 8.373 and 8.463 and 7.217 and 8.143 and 8.359 and 8.349 and 8.174 and 7.939 | bright around the area of the parasite in iRBCs and faintly visible in the RBC membrane of both uRBCs and iRBCs | 1.118 and 1.012 and 1.021 and 0.967 and 1.053 and 0.8292 and 1.027 and 0.983 and 0.9903 and 0.9497 and 1.016 and 1.035
4 | CC1=CC(C)=[N+]2C1=C(CC[C@@H](C)[C@H]1CC[C@H]3[C@@H]4CC=C5C[C@@H](O)CC[C@]5(C)[C@H]4CC[C@]13C)c1c(C)cc(C)n1[B-]2(F)F [24-BODIPY-cholesterol] | – | – | visible in the RBC membrane of both uninfected RBCs (uRBCs) and iRBCs, and in the intracellular parasites inside erythrocytes | –
5 | CC(C)[C@@H](C)/C=C/[C@@H](C)[C@H]1CC[C@H]2C3=CC=C4C[C@@H](O)CC[C@]4(C)C3=CC[C@]12C [dehydroergosterol] | – | – | fluorescence concentrated within the parasite | –
6 | COc1ccc(CNc2ccc([N+](=O)[O-])c3nonc23)cc1 [p-methoxybenzylamine-NBD] | – | – | only faint fluorescence in uRBCs and iRBCs | –
